From patent publication US20080234188A1, “Antimicrobial Peptides” (The Hospital for Sick Children, priority 2001, published 2008)
At least one peptide structure holds a part that was inferred or is arguable (an end, a ring closure or a residue). Some entries repeat one wording, which the source may state once for all of them. Where a SMILES comes first, the peptide text is derived from it.

Test system: Gram-positive and Gram-negative bacteria
Test: Antibacterial activity, statements in text for the bacteria examined
Format: cell-based
Conditions: for Antimicrobial activity (in words): bacteria of Table 2

| SMILES | Antibacterial activity (in words) (even up to 64 μg/ml) | Antimicrobial activity (in words) |
| --- | --- | --- |
| C[C@H](NC(=O)[C@H](C)NC(=O)[C@H](C)NC(=O)[C@H](CO)NC(=O)[C@H](C)NC(=O)[C@H](C)NC(=O)[C@H](C)NC(=O)[C@H](CCCCN)NC(=O)[C@@H](N)CCCCN)C(=O)N[C@@H](C)C(=O)N[C@@H](C)C(=O)N[C@@H](CO)C(=O)N[C@@H](C)C(=O)N[C@@H](C)C(=O)N[C@@H](Cc1c[nH]c2ccccc12)C(=O)N[C@@H](C)C(=O)N[C@@H](C)C(=O)N[C@@H](CO)C(=O)N[C@@H](C)C(=O)N[C@@H](C)C(=O)N[C@@H](C)C(=O)N[C@@H](CCCCN)C(=O)N[C@@H](CCCCN)C(=O)N[C@@H](CCCCN)C(=O)N[C@@H](CCCCN)C(N)=O [Peptide S25] (H-KKAAASAAAAASAAWAASAAAKKKK-NH2; N-terminus assumed) | no antibacterial activity was detected |  |
| C[C@H](NC(=O)[C@H](C)NC(=O)[C@H](Cc1ccccc1)NC(=O)[C@H](C)NC(=O)[C@H](C)NC(=O)[C@H](CCCNC(=N)N)NC(=O)[C@H](CCCNC(=N)N)NC(=O)[C@@H](N)CCCNC(=N)N)C(=O)N[C@@H](Cc1c[nH]c2ccccc12)C(=O)N[C@@H](C)C(=O)N[C@@H](C)C(=O)N[C@@H](Cc1ccccc1)C(=O)N[C@@H](C)C(=O)N[C@@H](C)C(=O)N[C@@H](CCCNC(=N)N)C(=O)N[C@@H](CCCNC(=N)N)C(=O)N[C@@H](CCCNC(=N)N)C(N)=O [Peptide F17R, RRRAAFAAWAAFAARRR-NH2] (H-RRRAAFAAWAAFAARRR-NH2; N-terminus assumed) |  | retain high antimicrobial activity |
| C[C@H](NC(=O)[C@H](C)NC(=O)[C@H](C)NC(=O)[C@H](Cc1ccccc1)NC(=O)[C@H](C)NC(=O)[C@H](CCCCN)NC(=O)[C@@H](N)CCCCN)C(=O)N[C@@H](C)C(=O)N[C@@H](C)C(=O)N[C@@H](Cc1ccccc1)C(=O)N[C@@H](C)C(=O)N[C@@H](C)C(=O)N[C@@H](Cc1c[nH]c2ccccc12)C(=O)N[C@@H](C)C(=O)N[C@@H](C)C(=O)N[C@@H](Cc1ccccc1)C(=O)N[C@@H](C)C(=O)N[C@@H](CCCCN)C(=O)N[C@@H](CCCCN)C(=O)N[C@@H](CCCCN)C(=O)N[C@@H](CCCCN)C(N)=O [Peptide F21] (H-KKAFAAAAAFAAWAAFAKKKK-NH2; N-terminus assumed) |  | retain high antimicrobial activity |
| C[C@H](NC(=O)[C@H](C)NC(=O)[C@H](Cc1ccccc1)NC(=O)[C@H](C)NC(=O)[C@H](C)NC(=O)[C@H](Cc1c[nH]c2ccccc12)NC(=O)[C@H](C)NC(=O)[C@H](C)NC(=O)[C@H](Cc1ccccc1)NC(=O)[C@H](C)NC(=O)[C@H](C)NC(=O)[C@H](CCCCN)NC(=O)[C@H](CCCCN)NC(=O)[C@H](CCCCN)NC(=O)[C@H](CCCCN)NC(=O)[C@H](CCCCN)NC(=O)[C@@H](N)CCCCN)C(N)=O [F17(K6), KKKKKKAAFAAWAAFAA-NH2] (H-KKKKKKAAFAAWAAFAA-NH2; N-terminus assumed) |  | retain high antimicrobial activity |
